Here are results for 1 substance from publication PMC3795256.

By UniProt entry, the sequences of proteins in these tests, tags left out. Residues count along the entry.
UniProt P07237, residues 18-508: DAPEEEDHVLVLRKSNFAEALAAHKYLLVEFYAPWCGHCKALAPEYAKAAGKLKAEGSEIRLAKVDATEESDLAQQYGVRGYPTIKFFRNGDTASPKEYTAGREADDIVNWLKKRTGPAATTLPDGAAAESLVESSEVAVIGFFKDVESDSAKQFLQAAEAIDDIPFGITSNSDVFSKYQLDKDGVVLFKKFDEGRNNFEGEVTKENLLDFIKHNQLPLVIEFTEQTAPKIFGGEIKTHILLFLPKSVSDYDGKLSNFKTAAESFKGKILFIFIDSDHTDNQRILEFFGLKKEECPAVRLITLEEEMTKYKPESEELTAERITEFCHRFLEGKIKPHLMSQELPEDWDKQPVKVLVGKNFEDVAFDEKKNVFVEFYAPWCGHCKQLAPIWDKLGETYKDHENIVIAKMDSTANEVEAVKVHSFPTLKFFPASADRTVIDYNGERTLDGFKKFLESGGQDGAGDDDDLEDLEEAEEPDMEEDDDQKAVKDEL

No constants are given. Whether binding was seen depends on the method and setting. In cells and extracts the contact can be indirect. Some binding calls cover weakened binding; strength is not graded here. Sequences can lack the tags named with a protein.

The target of the assay is T1, Ero1α-FLAG (ER oxidoreductin-1 α, wild type) (human) (UniProt Q96HE7).
T1 sequence: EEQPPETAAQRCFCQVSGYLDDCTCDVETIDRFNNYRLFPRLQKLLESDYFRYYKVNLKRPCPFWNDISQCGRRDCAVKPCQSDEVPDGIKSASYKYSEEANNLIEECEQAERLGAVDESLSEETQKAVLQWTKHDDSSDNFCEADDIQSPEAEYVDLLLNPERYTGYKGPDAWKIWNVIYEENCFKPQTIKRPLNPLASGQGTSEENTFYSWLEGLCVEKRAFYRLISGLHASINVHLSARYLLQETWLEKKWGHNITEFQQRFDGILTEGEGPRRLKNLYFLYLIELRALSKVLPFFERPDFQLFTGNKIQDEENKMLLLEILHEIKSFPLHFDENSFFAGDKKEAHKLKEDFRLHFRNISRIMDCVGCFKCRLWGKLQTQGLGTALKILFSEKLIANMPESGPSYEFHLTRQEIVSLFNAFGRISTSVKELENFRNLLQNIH
As to the kind of experiment: co-IP; HeLa cells transfected with Prx4-FLAG or Ero1α-FLAG, with or without 0.25 μM dithiobis succinimidyl propionate (DSP) on ice; anti-FLAG immunoprecipitates eluted by FLAG peptides, Western blot. For orientation: A western blot detects proteins with antibodies after separation by electrophoresis.

As to “protein disulfide isomerase (PDI) (from UniProt P07237 18-508)”, the binding entry is listed as “binds”.
